For this assay, the system named is CD2F1 mice, nontumored, toxicity/survival. Description: NCI In Vivo Anticancer Drug Screen. Data for tumor model Nontumored Animals (Toxicity Test) in CD2F1 (CDF1) mice.

Shown are survivors of the treated group in tumour-free mice. Counts of survivors are from the toxicity check (mostly the fifth day) where no day follows; animals may have died later. Schedules are NCI's codes, taken here to give the interval after Q, in days (D) or hours (H), and the number of doses after X.

Regarding `COc1cc([C@@H]2c3cc4c(cc3[C@@H](OC3OC5CO[C@@H](c6cccs6)OC5C(O)C3O)[C@H]3COC(=O)[C@H]23)OCO4)cc(OC)c1O` (some centres not stated), the survivor count is, setting by setting: (dose: 0.25 mg/kg/injection, schedule: Q03HX016 (ip), vehicle: saline) 8 of 8; (dose: 0.25 mg/kg/injection, schedule: Q03HX024 (ip), vehicle: saline) 8 of 8; (dose: 0.5 mg/kg/injection, schedule: Q01DX005 (ip), vehicle: saline) 8 of 8; (dose: 0.5 mg/kg/injection, schedule: Q01DX009 (ip), vehicle: saline) 8 of 8; (dose: 0.5 mg/kg/injection, schedule: Q01DX009 (sc), vehicle: saline) 8 of 8; (dose: 0.5 mg/kg/injection, schedule: Q03HX008 (ip), vehicle: saline) 8 of 8. For the same compound, the survivor count reads like this: (dose: 0.5 mg/kg/injection, schedule: Q03HX016 (ip), vehicle: saline) 8 of 8; (dose: 0.5 mg/kg/injection, schedule: Q03HX024 (ip), vehicle: saline) 8 of 8; (dose: 1.0 mg/kg/injection, schedule: Q01DX005 (ip), vehicle: saline) 8 of 8; (dose: 1.0 mg/kg/injection, schedule: Q01DX009 (ip), vehicle: saline) 8 of 8; (dose: 1.0 mg/kg/injection, schedule: Q01DX009 (sc), vehicle: saline) 8 of 8; (dose: 1.0 mg/kg/injection, schedule: Q03HX008 (ip), vehicle: saline) 8 of 8. Also, the survivor count was 8 of 8 (dose: 1.0 mg/kg/injection, schedule: Q03HX016 (ip), vehicle: saline); 8 of 8 (dose: 1.0 mg/kg/injection, schedule: Q03HX024 (ip), vehicle: saline); 8 of 8 (dose: 2.0 mg/kg/injection, schedule: Q01DX001 (sc), vehicle: saline); 8 of 8 (dose: 2.0 mg/kg/injection, schedule: Q01DX005 (ip), vehicle: saline); 8 of 8 (dose: 2.0 mg/kg/injection, schedule: Q01DX009 (ip), vehicle: saline); 8 of 8 (dose: 2.0 mg/kg/injection, schedule: Q01DX009 (oral), vehicle: saline). Further, the survivor count by setting is: (dose: 2.0 mg/kg/injection, schedule: Q01DX009 (sc), vehicle: saline) 8 of 8; (dose: 2.0 mg/kg/injection, schedule: Q03HX008 (ip), vehicle: saline) 8 of 8; (dose: 2.0 mg/kg/injection, schedule: Q03HX016 (ip), vehicle: saline) 8 of 8; (dose: 2.0 mg/kg/injection, schedule: Q03HX024 (ip), vehicle: saline) 8 of 8; (dose: 2.0 mg/kg/injection, schedule: Q04DX003 (ip), vehicle: saline) 8 of 8; (dose: 2.0 mg/kg/injection, schedule: Q08DX002 (ip), vehicle: saline) 8 of 8. The survivor count was 8 of 8 (dose: 4.0 mg/kg/injection, schedule: Q01DX001 (ip), vehicle: saline); 8 of 8 (dose: 4.0 mg/kg/injection, schedule: Q01DX001 (sc), vehicle: saline); 7 of 8 (dose: 4.0 mg/kg/injection, schedule: Q01DX005 (ip), vehicle: saline); 8 of 8 (dose: 4.0 mg/kg/injection, schedule: Q01DX009 (ip), vehicle: saline); 8 of 8 (dose: 4.0 mg/kg/injection, schedule: Q01DX009 (oral), vehicle: saline); 8 of 8 (dose: 4.0 mg/kg/injection, schedule: Q01DX009 (sc), vehicle: saline). Further, the survivor count was 3 of 8 (dose: 4.0 mg/kg/injection, schedule: Q03HX008 (ip), vehicle: saline); 2 of 8 (dose: 4.0 mg/kg/injection, schedule: Q03HX016 (ip), vehicle: saline); 5 of 8 (dose: 4.0 mg/kg/injection, schedule: Q03HX024 (ip), vehicle: saline); 8 of 8 (dose: 4.0 mg/kg/injection, schedule: Q04DX003 (ip), vehicle: saline); 8 of 8 (dose: 4.0 mg/kg/injection, schedule: Q08DX002 (ip), vehicle: saline); 8 of 8 (dose: 8.0 mg/kg/injection, schedule: Q01DX001 (ip), vehicle: saline). Further, the survivor count is 8 of 8 (dose: 8.0 mg/kg/injection, schedule: Q01DX001 (oral), vehicle: saline); 8 of 8 (dose: 8.0 mg/kg/injection, schedule: Q01DX001 (sc), vehicle: saline); 8 of 8 (dose: 8.0 mg/kg/injection, schedule: Q01DX005 (ip), vehicle: saline); 8 of 8 (dose: 8.0 mg/kg/injection, schedule: Q01DX009 (ip), vehicle: saline); 7 of 8 (dose: 8.0 mg/kg/injection, schedule: Q01DX009 (oral), vehicle: saline); 6 of 8 (dose: 8.0 mg/kg/injection, schedule: Q01DX009 (sc), vehicle: saline). The survivor count is on record as 2 of 8 (dose: 8.0 mg/kg/injection, schedule: Q03HX008 (ip), vehicle: saline); 8 of 8 (dose: 8.0 mg/kg/injection, schedule: Q04DX003 (ip), vehicle: saline); 8 of 8 (dose: 8.0 mg/kg/injection, schedule: Q08DX002 (ip), vehicle: saline); 8 of 8 (dose: 16.0 mg/kg/injection, schedule: Q01DX001 (ip), vehicle: saline); 8 of 8 (dose: 16.0 mg/kg/injection, schedule: Q01DX001 (oral), vehicle: saline); 8 of 8 (dose: 16.0 mg/kg/injection, schedule: Q01DX001 (sc), vehicle: saline). The survivor count is 8 of 8 (dose: 16.0 mg/kg/injection, schedule: Q01DX009 (oral), vehicle: saline); 7 of 8 (dose: 16.0 mg/kg/injection, schedule: Q04DX003 (ip), vehicle: saline); 7 of 8 (dose: 16.0 mg/kg/injection, schedule: Q08DX002 (ip), vehicle: saline); 6 of 8 (dose: 32.0 mg/kg/injection, schedule: Q01DX001 (ip), vehicle: saline); 7 of 8 (dose: 32.0 mg/kg/injection, schedule: Q01DX001 (oral), vehicle: saline); 8 of 8 (dose: 32.0 mg/kg/injection, schedule: Q01DX001 (sc), vehicle: saline). Moreover, the survivor count by setting is: (dose: 32.0 mg/kg/injection, schedule: Q01DX009 (oral), vehicle: saline) 6 of 8; (dose: 32.0 mg/kg/injection, schedule: Q04DX003 (ip), vehicle: saline) 5 of 8; (dose: 32.0 mg/kg/injection, schedule: Q08DX002 (ip), vehicle: saline) 7 of 8; (dose: 64.0 mg/kg/injection, schedule: Q01DX001 (ip), vehicle: saline) 0 of 8; (dose: 64.0 mg/kg/injection, schedule: Q01DX001 (oral), vehicle: saline) 0 of 8.
For the compound `Cc1c(N)ncc2ccccc12`, the survivor count reads like this: (dose: 1.0 mg/kg/injection, schedule: Q01DX001 (ip), vehicle: other) 2 of 2; (dose: 10.0 mg/kg/injection, schedule: Q01DX001 (ip), vehicle: other) 2 of 2; (dose: 100.0 mg/kg/injection, schedule: Q01DX001 (ip), vehicle: other) 2 of 2.
As to `CCCCCCCCN(C)N=Nc1ccc(C(N)=O)cc1`, the survivor count was 10 of 10 (dose: 79.0 mg/kg/injection, schedule: Q01DX009 (ip), vehicle: Klucel (hydroxypropylcellulose) (HPC)); 10 of 10 (dose: 118.0 mg/kg/injection, schedule: Q01DX009 (ip), vehicle: Klucel (hydroxypropylcellulose) (HPC)); 10 of 10 (dose: 177.0 mg/kg/injection, schedule: Q01DX009 (ip), vehicle: Klucel (hydroxypropylcellulose) (HPC)); 8 of 8 (dose: 266.0 mg/kg/injection, schedule: Q01DX009 (ip), vehicle: Klucel (hydroxypropylcellulose) (HPC)); 8 of 8 (dose: 400.0 mg/kg/injection, schedule: Q01DX009 (ip), vehicle: Klucel (hydroxypropylcellulose) (HPC)).
